Test results: US20090149377
The exact form of at least one protein or probe is not confirmed. Where cells or extracts were used, other partners may take part. For part of these data: Protein sequences can lack the tags named with them.

Assays:
Assay in all cases: pull-down
[1] = molecular target: ATP-dependent RNA helicase A (RHA/DDX9) (Homo sapiens) (UniProt Q08211); details: MCF7 extract, mass spectrometry; may be indirect; protein in an extract; label: biotin
[2] = molecular target: CSDA protein (Homo sapiens) (UniProt P16989); details: MCF7 extract, mass spectrometry; may be indirect; protein in an extract; label: biotin
[3] = molecular target: T1, GTP-binding like protein 2 (Homo sapiens) (UniProt Q9BX10); details: MCF7 extract, mass spectrometry; may be indirect; protein in an extract; label: biotin
T1 sequence (looked up, limits assumed): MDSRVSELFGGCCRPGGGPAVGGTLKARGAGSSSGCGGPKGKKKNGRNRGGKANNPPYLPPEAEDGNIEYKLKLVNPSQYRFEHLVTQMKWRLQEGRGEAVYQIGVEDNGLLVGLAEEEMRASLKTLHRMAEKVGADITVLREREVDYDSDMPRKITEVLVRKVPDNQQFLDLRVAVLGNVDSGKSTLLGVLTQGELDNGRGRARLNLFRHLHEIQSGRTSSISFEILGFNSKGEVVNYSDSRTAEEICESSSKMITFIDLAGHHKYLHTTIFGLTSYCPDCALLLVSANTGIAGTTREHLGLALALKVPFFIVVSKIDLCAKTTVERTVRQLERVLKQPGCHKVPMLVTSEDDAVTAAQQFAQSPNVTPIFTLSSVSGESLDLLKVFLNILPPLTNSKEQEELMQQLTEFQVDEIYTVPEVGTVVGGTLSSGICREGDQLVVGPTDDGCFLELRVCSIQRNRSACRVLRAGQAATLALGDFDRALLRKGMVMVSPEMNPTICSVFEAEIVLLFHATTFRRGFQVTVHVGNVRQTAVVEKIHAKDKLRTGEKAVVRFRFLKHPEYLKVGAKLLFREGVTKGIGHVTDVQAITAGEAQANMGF

Gemin5 (Homo sapiens) = Gemin5 (Homo sapiens) (UniProt Q8TEQ6); details: MCF7 extract, mass spectrometry; may be indirect; protein in an extract; label: biotin
HRX (Homo sapiens) = HRX (Homo sapiens) (UniProt Q03164); details: MCF7 extract, mass spectrometry; may be indirect; protein in an extract; label: biotin
[4] = molecular target: IGF-II mRNA-binding protein 3 (IMP-3) (Homo sapiens) (UniProt O00425); details: MCF7 extract, mass spectrometry; may be indirect; protein in an extract; label: biotin
Ku70 (Homo sapiens) = Ku70 (Homo sapiens) (UniProt P12956); details: MCF7 extract, mass spectrometry; may be indirect; protein in an extract; label: biotin
Ku80 (Homo sapiens) = Ku80 (Homo sapiens) (UniProt P13010); details: MCF7 extract, mass spectrometry; may be indirect; protein in an extract; label: biotin
NSAP (Homo sapiens) = molecular target: T2, NSAP (Homo sapiens) (UniProt O60506); details: MCF7 extract, mass spectrometry; may be indirect; protein in an extract; label: biotin
T2 sequence (looked up, limits assumed): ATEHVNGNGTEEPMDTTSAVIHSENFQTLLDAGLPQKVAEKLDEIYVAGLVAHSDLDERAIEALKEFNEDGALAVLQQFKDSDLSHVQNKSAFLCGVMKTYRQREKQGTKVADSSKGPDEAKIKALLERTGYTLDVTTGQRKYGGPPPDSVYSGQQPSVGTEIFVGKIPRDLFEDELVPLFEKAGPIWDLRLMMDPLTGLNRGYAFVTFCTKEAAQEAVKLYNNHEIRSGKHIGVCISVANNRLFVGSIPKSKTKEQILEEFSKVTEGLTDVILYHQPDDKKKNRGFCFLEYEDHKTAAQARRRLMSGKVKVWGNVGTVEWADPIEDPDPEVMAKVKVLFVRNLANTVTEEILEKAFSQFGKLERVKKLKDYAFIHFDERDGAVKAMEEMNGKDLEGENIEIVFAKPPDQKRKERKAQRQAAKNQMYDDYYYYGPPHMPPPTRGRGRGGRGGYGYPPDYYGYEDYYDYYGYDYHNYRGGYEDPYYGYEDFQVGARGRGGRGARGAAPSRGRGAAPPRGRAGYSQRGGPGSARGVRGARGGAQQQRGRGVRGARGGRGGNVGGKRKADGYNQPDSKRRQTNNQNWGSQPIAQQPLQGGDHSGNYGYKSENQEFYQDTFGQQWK

PKR (Homo sapiens) = PKR (Homo sapiens) (UniProt P19525); details: MCF7 extract, mass spectrometry; may be indirect; protein in an extract; label: biotin
RPL26 (Homo sapiens) = RPL26 (Homo sapiens) (UniProt P61254); details: MCF7 lysate; binding increased after irradiation; protein in an extract; label: biotin
[5] = molecular target: TRBP isoform a (Homo sapiens) (UniProt Q15633); details: MCF7 extract, mass spectrometry; may be indirect; protein in an extract; label: biotin
YB-1 (Homo sapiens) = YB-1 (Homo sapiens) (UniProt P67809); details: MCF7 extract, mass spectrometry; may be indirect; protein in an extract; label: biotin
[6] = molecular target: casein kinase 1, gamma 2 (Homo sapiens) (UniProt P78368); details: MCF7 extract, mass spectrometry; may be indirect; protein in an extract; label: biotin
eEF1A-1 (Homo sapiens) = molecular target: T3, eEF1A-1 (Homo sapiens) (UniProt P68104); details: MCF7 extract, mass spectrometry; may be indirect; protein in an extract; label: biotin
T3 sequence (looked up, limits assumed): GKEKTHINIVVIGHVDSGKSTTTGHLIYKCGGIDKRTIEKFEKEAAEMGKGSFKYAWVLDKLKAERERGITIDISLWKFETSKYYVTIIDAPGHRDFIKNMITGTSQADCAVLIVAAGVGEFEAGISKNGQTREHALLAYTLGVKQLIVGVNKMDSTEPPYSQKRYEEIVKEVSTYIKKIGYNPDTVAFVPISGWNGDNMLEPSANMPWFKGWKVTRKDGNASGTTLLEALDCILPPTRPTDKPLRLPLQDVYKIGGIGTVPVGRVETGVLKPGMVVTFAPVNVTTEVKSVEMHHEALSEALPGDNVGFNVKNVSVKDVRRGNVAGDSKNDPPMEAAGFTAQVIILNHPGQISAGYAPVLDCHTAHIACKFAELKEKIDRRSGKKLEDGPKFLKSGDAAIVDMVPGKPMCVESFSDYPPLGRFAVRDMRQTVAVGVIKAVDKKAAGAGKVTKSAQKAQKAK

[7] = tested on: heat shock cognate protein 54 (HSC54) (Homo sapiens); details: MCF7 extract, mass spectrometry; may be indirect; protein in an extract; label: biotin
[8] = tested on: hepatocellular carcinoma autoantigen (Homo sapiens); details: MCF7 extract, mass spectrometry; may be indirect; protein in an extract; label: biotin
hnRNPU (Homo sapiens) = hnRNPU (Homo sapiens) (UniProt Q00839); details: MCF7 extract, mass spectrometry; may be indirect; protein in an extract; label: biotin
nucleolin (Homo sapiens) = nucleolin (Homo sapiens) (UniProt P19338); details: MCF7 extract; direct binding not distinguished from complex; unchanged after IR; protein in an extract; label: biotin
[9] = molecular target: ribonucleoprotein La (Homo sapiens) (UniProt P05455); details: MCF7 extract, mass spectrometry; may be indirect; protein in an extract; label: biotin
[10] = tested on: similar to TSEP-1 (Homo sapiens); details: MCF7 extract, mass spectrometry; may be indirect; protein in an extract; label: biotin
[11] = molecular target: T4, staufen protein (Homo sapiens) (UniProt O95793); details: MCF7 extract, mass spectrometry; may be indirect; protein in an extract; label: biotin
T4 sequence (looked up, limits assumed): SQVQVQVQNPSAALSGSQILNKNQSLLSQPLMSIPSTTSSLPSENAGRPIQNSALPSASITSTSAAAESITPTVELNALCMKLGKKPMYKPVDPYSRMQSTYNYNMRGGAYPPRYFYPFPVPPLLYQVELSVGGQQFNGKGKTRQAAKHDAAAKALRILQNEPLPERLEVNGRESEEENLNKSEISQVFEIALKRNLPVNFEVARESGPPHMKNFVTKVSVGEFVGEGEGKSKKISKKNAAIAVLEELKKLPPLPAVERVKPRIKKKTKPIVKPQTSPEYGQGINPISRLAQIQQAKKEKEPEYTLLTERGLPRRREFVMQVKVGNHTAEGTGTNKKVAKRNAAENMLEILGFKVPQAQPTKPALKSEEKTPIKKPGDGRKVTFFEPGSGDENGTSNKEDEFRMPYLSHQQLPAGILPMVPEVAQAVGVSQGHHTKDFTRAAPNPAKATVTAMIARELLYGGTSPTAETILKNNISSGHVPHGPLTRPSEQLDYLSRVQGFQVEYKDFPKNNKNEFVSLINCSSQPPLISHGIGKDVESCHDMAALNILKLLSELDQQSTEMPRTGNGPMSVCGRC

[12] = molecular target: transcription factor NF-AT (Homo sapiens) (UniProt Q12905); details: MCF7 extract, mass spectrometry; may be indirect; protein in an extract; label: biotin
[13] = molecular target: transcription intermediary factor 1-beta (Homo sapiens) (UniProt Q13263); details: MCF7 extract, mass spectrometry; may be indirect; protein in an extract; label: biotin
[14] = tested on: translation control protein 80 (TCP80) (Homo sapiens); details: MCF7 extract, mass spectrometry; may be indirect; protein in an extract; label: biotin
tuberin (Homo sapiens) = tuberin (Homo sapiens) (UniProt P49815); details: MCF7 extract, mass spectrometry; may be indirect; protein in an extract; label: biotin
[15] = molecular target: zinc-finger DNA-binding protein (Homo sapiens) (UniProt Q13029); details: MCF7 extract, mass spectrometry; may be indirect; protein in an extract; label: biotin

Measured: binding result

GGUUUUCCCCUCCCAUGUGCUCAAGACUGGCGCUAAAAGUUUUGAGCUUCUCAAAAGUCUAGAGCCACCGUCCAGGGAGCAGGUAGCUGCUGGGCUCCGGGGACACUUUGCGUUCGGGCUGGGAGCGUGCUUUCCACGACGGUGACACGCUUCCCUGGAUUGGCAGCCAGACUGCCUUCCGGGUCACUGCCAU [p53 5'UTR (biotinylated)]
binds: all assays above
